Legend:
[1] = Wash test (metal remains adhered to substrate after multiple washes); details: white cotton fabric, 1 hr
[2] = Stain test (colour change of treated substrate, Delta E criteria); details: white cotton fabric, 1 hr

## [Ag(NH3)2]-carbonate [Example 1]
[1]; 10 ppm silver metal loading
  Wash test Pass?: Yes
[1]; 20 ppm silver metal loading
  Wash test Pass?: Yes
[1]; 100 ppm silver metal loading
  Wash test Pass?: Yes
[1]; 500 ppm silver metal loading
  Wash test Pass?: Yes
[1]; 1000 ppm silver metal loading
  Wash test Pass?: Yes
[1]; 3000 ppm silver metal loading
  Wash test Pass?: Yes
[2]; 10 ppm silver metal loading
  Stain test Pass?: Yes
[2]; 20 ppm silver metal loading
  Stain test Pass?: Yes
[2]; 100 ppm silver metal loading
  Stain test Pass?: Yes
[2]; 500 ppm silver metal loading
  Stain test Pass?: Yes
[2]; 1000 ppm silver metal loading
  Stain test Pass?: Yes
[2]; 3000 ppm silver metal loading
  Stain test Pass?: No
